In patent US4452985A, “2-Guanyl-4-(substituted phenyl) thiazole derivatives” (American Home Products Corporation, priority 1983, dated 1984):
Where a name gives a salt, the structure may show the parent alone. At least one compound was matched to its structure with a doubt left.

System: gastric acid secretion
Experiment: Gastric secretion in the pylorus-ligated rat (modified Shay procedure)
Assay type: in vivo
Conditions: rats
Description: The procedure for testing gastric secretion in the rat, a modification of the procedure of Shay et al., Gastroenterology, 26, 906-13 (1954) is carried out as follows:
Male Charles River rats weighing 200-300 grams are deprived of food but not water for 24 hours prior to use. Water is, however, withheld during the experiment. The rats are weighed, anesthetized, and the pylorus ligated according to the method of Shay et al. Treatment or vehicle control is then administered interduodenally (i.d.). Rats are housed 2/cage and sacrificed with CO2 four hours after ligation. The stomachs are removed, rinsed, and contents emptied into a graduated centrifuge tube. The tubes are centrifuged for 20 minutes at 2,000 RPM and the volume of gastric juice recorded. Any samples obviously contaminated by feces, food or hemolysis are eliminated. An aliquot of each is frozen for later analysis of Na^+, K^+ and Cl^- concentration. The pH is measured and 1 ml. of gastric juice is titrated with 0.1 N NaOH to a pH of 7.0-7.4. Titratable acid output is calculated in microequivalents and the percent inhibition of acid output is calculated as follows: [formula]

SMILES: N#Cc1ccc(-c2csc(NC(=N)N)n2)cc1 [Example 1, [4-(4-Cyanophenyl)-2-Thiazolyl]Guanidine, Hydrobromide]
- H+ ion concentration: significantly lowering
- volume of secretion: without affecting the volume of secretion
